# Test: Plasma potassium in sheep of the MCC study (marker for hyperkalemia)
# Details: for Therapeutic Ratio: Benefit/Risk, sheep
# Description: The animal model that has been used most often to measure changes in MCC is the sheep model. The effect of compounds for enhancing mucociliary clearance (MCC) can be measured using an in vivo model described by Sabater et al., Journal of Applied Physiology, 1999, pp. 2191-2196, incorporated herein by reference. In these studies, adult sheep were restrained and nasally intubated with an endotracheal tube. Aerosolized test articles were administered over 10-15 minutes to sheep. Radiolabeled ^99mTc-sulfur colloid (TSC, 3.1 mg/mL; containing approximately 20 mCi) was then administered at a specified time four or eight hours after test article. The radiolabeled aerosol was administered through the endotracheal tube for about 5 minutes. The sheep were then extubated, and total radioactive counts in the lung were measured every 5 minutes for a 1-hour observation period. The rate of radiolabel clearance from the lung is representative of the MCC rate in the animal. The advantage of this system is that it closely simulates the human lung environment. The model also allows for the collection of simultaneous PK/PD information through plasma and urine sampling over the test period. There are also several techniques to measure the drug concentrations on the airway surface during the MCC measurements. These include the collection of exhaled breath condensates or a filter paper method to obtain ASL via bronchoscopy.
# The ovine model described above was used to evaluate the in vivo effects (efficacy/durability) of aerosol-delivered Compound II-d on MCC. Treatments consisting of either 4 mL of Compound II-d, Comparative Example 1, (S)-3,5-diamino-6-chloro-N—(N-(4-(4-(2,3-diamino-3-oxopropoxy)phenyl)butyl)carbamimidoyl)pyrazine-2-carboxamide, vehicle (sterile distilled H2O), or test agent in combination with HS were tested. To determine if combining HS with Compound II-d MCC, HS was administered immediately following Compound II-d administration. […] Radioactive counts were measured in a central region in the right lung at 5 min intervals for one hour with a gamma camera. […]
SMILES,Therapeutic Ratio,"benefit to risk ratio (sheep MCC model, MCC versus plasma potassium)"
"N=C(NCCCCc1ccc(OC[C@H](N)C(N)=O)cc1)NC(=O)c1nc(Cl)c(N)nc1N [Comparative Example 1, (S)-3,5-diamino-6-chloro-N—(N-(4-(4-(2,3-diamino-3-oxopropoxy)phenyl)butyl)carbamimidoyl)pyrazine-2-carboxamide, reference compound]",0.1,
"N=C(NCCCCc1ccc(CC[C@H](NCCCN(C[C@H](O)[C@@H](O)[C@H](O)[C@H](O)CO)C[C@H](O)[C@@H](O)[C@H](O)[C@H](O)CO)C(N)=O)cc1)NC(=O)c1nc(Cl)c(N)nc1N [II-d, 3,5-diamino-N—(N-(4-(4-((S)-4-amino-3-(3-(bis((2S,3R,4R,5R)-2,3,4,5,6-pentahydroxyhexyl)amino)propylamino)-4-oxobutyl)phenyl)butyl)carbamimidoyl)-6-chloropyrazine-2-carboxamide]","1,000",greater than 1000

# Source: patent US10246425B2, “3,5-diamino-6-chloro-N-(N-(4-phenylbutyl)carbamimidoyl) pyrazine-2-carboxamide compounds” (Parion Sciences, Inc., priority 2012, dated 2019)
